For one substance, binding results are on record in PMC2661024.

Sequences of proteins named here, by UniProt entry; tags and fusion partners are left off.
UniProt Q15075: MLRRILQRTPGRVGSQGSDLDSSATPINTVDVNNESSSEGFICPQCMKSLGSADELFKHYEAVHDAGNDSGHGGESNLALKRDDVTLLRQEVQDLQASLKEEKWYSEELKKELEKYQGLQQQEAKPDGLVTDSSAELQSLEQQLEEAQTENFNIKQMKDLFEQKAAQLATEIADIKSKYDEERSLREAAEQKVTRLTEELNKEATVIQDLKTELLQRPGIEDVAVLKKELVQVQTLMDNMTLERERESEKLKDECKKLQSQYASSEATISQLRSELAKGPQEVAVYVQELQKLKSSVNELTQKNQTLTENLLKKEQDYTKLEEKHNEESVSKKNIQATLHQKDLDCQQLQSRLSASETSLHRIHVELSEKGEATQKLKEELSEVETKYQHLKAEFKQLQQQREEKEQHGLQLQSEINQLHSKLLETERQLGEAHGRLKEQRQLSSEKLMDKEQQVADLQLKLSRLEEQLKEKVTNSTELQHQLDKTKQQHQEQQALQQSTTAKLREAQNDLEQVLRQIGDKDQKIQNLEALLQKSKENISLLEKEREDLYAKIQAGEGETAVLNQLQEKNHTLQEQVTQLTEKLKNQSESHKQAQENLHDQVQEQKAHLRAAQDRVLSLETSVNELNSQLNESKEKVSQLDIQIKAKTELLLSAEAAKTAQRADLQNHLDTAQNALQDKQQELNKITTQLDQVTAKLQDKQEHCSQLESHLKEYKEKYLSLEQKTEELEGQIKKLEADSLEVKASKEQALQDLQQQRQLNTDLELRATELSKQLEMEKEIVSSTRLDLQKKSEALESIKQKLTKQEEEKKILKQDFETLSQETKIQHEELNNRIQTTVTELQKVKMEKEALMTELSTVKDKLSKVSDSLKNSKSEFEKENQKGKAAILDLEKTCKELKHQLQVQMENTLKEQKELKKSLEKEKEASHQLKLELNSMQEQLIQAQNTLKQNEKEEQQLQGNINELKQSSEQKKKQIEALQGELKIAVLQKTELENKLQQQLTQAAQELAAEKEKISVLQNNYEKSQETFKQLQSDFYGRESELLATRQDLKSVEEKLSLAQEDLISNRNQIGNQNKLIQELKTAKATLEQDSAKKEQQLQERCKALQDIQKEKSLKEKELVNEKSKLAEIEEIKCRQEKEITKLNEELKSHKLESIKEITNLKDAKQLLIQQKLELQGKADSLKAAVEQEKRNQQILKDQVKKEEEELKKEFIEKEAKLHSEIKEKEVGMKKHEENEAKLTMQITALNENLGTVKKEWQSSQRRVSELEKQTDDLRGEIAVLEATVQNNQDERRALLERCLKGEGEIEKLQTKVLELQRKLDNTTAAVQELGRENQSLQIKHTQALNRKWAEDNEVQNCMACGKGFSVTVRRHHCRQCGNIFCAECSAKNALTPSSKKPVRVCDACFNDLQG

For this experiment, the target named is Cif virulence factor (Pseudomonas aeruginosa (strain UCBPP-PA14)). Kind of experiment: co-IP.

Results are given in words; binding and its absence hold for the method and conditions named. In cells and extracts the contact can be indirect. Some entries that bind do so weakly or less than the wild type.

Regarding “early endosomal antigen (EEA)-1 (from UniProt Q15075 1-1411)”, the binding entry was “binds”.
